For one substance, binding results are on record in publication PMC6800482.

Sequences of proteins named here, by UniProt entry; tags and fusion partners are left off.
UniProt P33334: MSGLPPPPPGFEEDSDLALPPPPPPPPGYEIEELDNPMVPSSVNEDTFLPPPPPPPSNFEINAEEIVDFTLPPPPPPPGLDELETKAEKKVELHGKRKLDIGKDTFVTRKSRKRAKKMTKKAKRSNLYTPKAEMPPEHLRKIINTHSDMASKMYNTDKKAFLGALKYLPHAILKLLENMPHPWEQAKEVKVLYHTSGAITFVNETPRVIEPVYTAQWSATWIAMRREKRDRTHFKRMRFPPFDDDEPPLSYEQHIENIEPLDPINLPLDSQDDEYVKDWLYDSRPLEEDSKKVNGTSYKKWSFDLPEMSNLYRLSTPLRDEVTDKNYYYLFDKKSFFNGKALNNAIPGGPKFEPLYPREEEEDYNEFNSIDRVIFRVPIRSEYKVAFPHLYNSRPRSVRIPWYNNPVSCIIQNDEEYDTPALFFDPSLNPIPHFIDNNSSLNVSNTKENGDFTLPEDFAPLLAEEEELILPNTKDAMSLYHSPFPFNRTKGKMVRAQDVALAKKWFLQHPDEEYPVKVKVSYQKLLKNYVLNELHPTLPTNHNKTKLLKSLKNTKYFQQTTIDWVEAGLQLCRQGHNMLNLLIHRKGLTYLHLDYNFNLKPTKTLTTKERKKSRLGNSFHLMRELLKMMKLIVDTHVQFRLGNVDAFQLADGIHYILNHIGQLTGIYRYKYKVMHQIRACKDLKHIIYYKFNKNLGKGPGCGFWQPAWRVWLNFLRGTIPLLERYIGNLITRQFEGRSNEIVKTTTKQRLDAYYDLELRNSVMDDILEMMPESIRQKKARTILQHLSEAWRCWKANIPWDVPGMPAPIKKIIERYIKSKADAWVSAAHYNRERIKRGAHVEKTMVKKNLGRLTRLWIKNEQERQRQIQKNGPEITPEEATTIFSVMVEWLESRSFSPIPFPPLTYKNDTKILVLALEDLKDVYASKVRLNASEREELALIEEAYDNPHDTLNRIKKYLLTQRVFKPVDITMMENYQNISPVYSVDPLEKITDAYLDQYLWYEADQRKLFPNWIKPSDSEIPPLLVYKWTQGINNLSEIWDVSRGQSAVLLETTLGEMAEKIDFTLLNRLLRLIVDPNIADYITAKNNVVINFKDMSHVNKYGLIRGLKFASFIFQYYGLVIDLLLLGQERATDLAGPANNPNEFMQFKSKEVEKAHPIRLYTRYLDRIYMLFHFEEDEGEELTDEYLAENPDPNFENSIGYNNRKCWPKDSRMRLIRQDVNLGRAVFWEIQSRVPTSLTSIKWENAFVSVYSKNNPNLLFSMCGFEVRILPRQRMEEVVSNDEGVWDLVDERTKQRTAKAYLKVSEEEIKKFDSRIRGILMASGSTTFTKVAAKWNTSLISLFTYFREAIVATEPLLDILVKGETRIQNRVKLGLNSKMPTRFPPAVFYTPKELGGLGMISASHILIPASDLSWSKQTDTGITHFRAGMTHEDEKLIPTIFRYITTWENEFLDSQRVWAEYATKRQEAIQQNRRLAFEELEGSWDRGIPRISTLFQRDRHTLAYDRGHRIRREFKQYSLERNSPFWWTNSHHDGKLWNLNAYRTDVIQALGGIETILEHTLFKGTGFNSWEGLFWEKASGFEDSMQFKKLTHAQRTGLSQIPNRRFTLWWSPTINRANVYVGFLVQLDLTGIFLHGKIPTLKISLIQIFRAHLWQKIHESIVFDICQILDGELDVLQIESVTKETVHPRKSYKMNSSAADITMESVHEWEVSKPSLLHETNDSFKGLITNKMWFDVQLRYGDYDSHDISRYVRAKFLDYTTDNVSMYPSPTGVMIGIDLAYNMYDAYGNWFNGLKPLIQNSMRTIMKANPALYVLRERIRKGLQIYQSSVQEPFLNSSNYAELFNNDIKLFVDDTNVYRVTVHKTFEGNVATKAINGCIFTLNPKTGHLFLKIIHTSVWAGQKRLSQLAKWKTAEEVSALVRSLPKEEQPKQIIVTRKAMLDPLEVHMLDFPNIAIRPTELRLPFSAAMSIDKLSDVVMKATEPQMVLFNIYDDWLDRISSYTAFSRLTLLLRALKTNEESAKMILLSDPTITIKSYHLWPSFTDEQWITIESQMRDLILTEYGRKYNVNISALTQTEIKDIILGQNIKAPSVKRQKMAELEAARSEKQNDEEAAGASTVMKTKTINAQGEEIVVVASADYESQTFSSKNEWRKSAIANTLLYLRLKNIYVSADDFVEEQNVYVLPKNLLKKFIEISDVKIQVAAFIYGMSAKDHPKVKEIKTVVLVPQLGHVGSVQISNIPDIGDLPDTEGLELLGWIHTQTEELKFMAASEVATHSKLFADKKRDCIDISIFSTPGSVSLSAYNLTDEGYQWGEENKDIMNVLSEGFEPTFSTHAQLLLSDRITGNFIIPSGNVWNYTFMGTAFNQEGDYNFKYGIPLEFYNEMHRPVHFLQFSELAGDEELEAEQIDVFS

The assay has as its target T1, Spt5-AID*-6Flag (S. cerevisiae) (UniProt P27692).
T1 sequence: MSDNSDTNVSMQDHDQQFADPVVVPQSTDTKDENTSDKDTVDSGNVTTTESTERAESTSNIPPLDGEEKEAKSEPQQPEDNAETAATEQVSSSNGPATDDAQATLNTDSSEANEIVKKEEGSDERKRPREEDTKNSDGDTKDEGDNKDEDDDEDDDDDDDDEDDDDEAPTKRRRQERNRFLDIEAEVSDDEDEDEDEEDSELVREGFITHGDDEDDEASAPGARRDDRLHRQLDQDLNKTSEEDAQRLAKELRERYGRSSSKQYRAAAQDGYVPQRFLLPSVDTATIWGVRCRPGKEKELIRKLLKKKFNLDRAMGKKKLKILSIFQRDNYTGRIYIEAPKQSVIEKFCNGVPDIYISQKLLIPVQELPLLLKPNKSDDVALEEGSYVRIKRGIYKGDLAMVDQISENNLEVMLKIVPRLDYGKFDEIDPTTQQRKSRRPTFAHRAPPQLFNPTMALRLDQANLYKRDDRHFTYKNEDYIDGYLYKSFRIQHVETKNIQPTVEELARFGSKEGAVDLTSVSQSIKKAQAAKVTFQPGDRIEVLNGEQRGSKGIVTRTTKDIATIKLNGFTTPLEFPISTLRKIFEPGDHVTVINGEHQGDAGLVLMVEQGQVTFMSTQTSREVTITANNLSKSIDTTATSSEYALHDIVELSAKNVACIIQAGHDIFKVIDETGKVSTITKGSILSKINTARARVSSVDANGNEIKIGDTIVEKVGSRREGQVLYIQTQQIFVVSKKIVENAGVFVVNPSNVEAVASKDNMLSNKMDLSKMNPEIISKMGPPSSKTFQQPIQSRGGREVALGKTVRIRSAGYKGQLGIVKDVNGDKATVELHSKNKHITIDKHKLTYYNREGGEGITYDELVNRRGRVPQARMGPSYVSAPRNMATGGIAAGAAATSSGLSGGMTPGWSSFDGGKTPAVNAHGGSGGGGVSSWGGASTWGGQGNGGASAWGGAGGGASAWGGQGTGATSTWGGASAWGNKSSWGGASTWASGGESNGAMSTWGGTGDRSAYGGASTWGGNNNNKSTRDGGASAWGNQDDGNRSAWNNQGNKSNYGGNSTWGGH
The assay is described as follows: co-IP; Spt5-AID*-6Flag pulled down with anti-Flag antibody on Protein A/G Dynabeads from 1 mg of yeast lysate protein, 1 h at room temperature; lysis buffer 50 mM Tris-HCl pH 7.5, 150 mM NaCl, 0.2% NP-40; with or without RNase A (100 µg/mL); blots probed with anti-Prp40, anti-HA and anti-Prp8.

These are yes or no findings as the source states them, for the method shown. Binding seen in cells or lysates may run through a third protein. Some entries that bind do so weakly or less than the wild type. Tags and fused reporters may be left off the sequences shown.

Prp8 (from UniProt P33334 1-2413): the binding entry is given as “binds”.
